These are yes or no findings as the source states them, for the method shown. Binding calls can cover weak binding; strength is not graded here.

The target of this test is CdWRKY2 (bermudagrass [Cynodon dactylon (L.) Pers.]). Put plainly: two-hybrid; pGBKT7-CdWRKY2 co-transformed with pGADT7-MAPK3 or pGADT7-AtWRKY46 into Y2H gold strain; growth on SD/-Trp/-Leu and SD/-Trp/-Leu/-Ade/-His plates; pGBKT7-53/pGADT7-T as positive control.

B1: AtMAPK3 (enzyme, UniProt Q39023 1-370)
chain: MNTGGGQYTDFPAVETHGGQFISYDIFGSLFEITSKYRPPIIPIGRGAYGIVCSVLDTETNELVAMKKIANAFDNHMDAKRTLREIKLLRHLDHENIIAIRDVVPPPLRRQFSDVYISTELMDTDLHQIIRSNQSLSEEHCQYFLYQLLRGLKYIHSANIIHRDLKPSNLLLNANCDLKICDFGLARPTSENDFMTEYVVTRWYRAPELLLNSSDYTAAIDVWSVGCIFMELMNRKPLFPGKDHVHQMRLLTELLGTPTESDLGFTHNEDAKRYIRQLPNFPRQPLAKLFSHVNPMAIDLVDRMLTFDPNRRITVEQALNHQYLAKLHDPNDEPICQKPFSFEFEQQPLDEEQIKEMIYQEAIALNPTYG
As to B1, the binding result is “binds”.

B2: AtWRKY46 (protein, UniProt Q9SKD9 1-295)
chain: MMMEEKLVINELELGKELANRLMNNLKHTSSVDSNKTLISDILRIYQNAIFMLSFNQDKNILKRSLEIDGKDSKNVFKKRKVSEKNTEKVKVFVATEQENGSIDDGHCWRKYGQKEIHGSKNPRAYYRCTHRFTQDCLAVKQVQKSDTDPSLFEVKYLGNHTCNNITSPKTTTNFSVSLTNTNIFEGNRVHVTEQSEDMKPTKSEEVMISLEDLENKKNIFRTFSFSNHEIENGVWKSNLFLGNFVEDLSPATSGSAITSEVLSAPAAVENSETADSYFSSLDNIIDFGQDWLWS
B2: the binding result is recorded as “no binding”.

The values are drawn from paper PMC10388543.
